# Results deposited as PubChem BioAssay AID1259308 (NCATS, 2017).
# Aim: 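Knock-downs that increase output of a recombinant reporter protein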 (primary screen)
# Cell system: human HEK293 embryonic kidney cells stably expressing firefly luciferase (HEK-CMV-Luc2-Hygro)
# Reagent: single siRNA against human genes, 0.8 pmol siRNA per well
# Timing: 72 h
# Measurement: 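Reporter luminescence and viable-cell signal on separate replicate plates, given as percent of non-targeting control and median/MAD z-scores, plus per-cell luciferase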
# Scale: total luciferase, z-score and total luciferase, % of control: higher = more reporter protein produced; luciferase per cell, z-score: higher = more reporter output per viable cell; viable cells, % of control: higher = more viable cells
# Hit rule: 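Active when the median/MAD z-score for overall luciferase is greater than 3; a gene was taken forward for validation with new siRNAs if at least two of its three siRNAs passed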
# Calls: active = raised luciferase; inactive = no rise
# The deposit covers about 59,000 reagents; shown is an unselected part. About 1,510 of them (2.6%) count as active. 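Calls use total luciferase alone and ignore viability, so some active siRNAs may act by altering cell number.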 The numbers tell different reagents against one gene apart.
target gene,reagent,"total luciferase, z-score","total luciferase, % of control","luciferase per cell, z-score","viable cells, % of control",Call
"TNNI3 (troponin I3, cardiac type)",1,1.01,102,0.75,93.6,inactive
"TNNI3 (troponin I3, cardiac type)",2,-2.56,31,-2.3,63.5,inactive
"TNNI3 (troponin I3, cardiac type)",3,-0.0115,81.7,-0.344,99.9,inactive
SPOPL (speckle type BTB/POZ protein like),1,4.36,169,2.39,100,active
SPOPL (speckle type BTB/POZ protein like),2,0.198,85.8,0.161,91.9,inactive
SPOPL (speckle type BTB/POZ protein like),3,0.667,95.1,-0.282,115,inactive
TDRP (testis development related protein),1,-0.0198,81.5,0.169,87.1,inactive
TDRP (testis development related protein),2,1.08,103,0.651,97.4,inactive
TDRP (testis development related protein),3,1.14,105,3.51,46.3,inactive
UPK3A (uroplakin 3A),1,-0.22,77.5,0.791,70.3,inactive
UPK3A (uroplakin 3A),2,0.42,90.2,2.01,59.3,inactive
UPK3A (uroplakin 3A),3,0.16,85.1,0.189,90.4,inactive
CORO7 (coronin 7),1,-0.571,70.5,-0.603,92.4,inactive
CORO7 (coronin 7),2,-0.564,70.7,0.703,65.6,inactive
CORO7 (coronin 7),3,-0.912,63.8,-0.718,86.1,inactive

Records above whose target name begins with U or u:
target gene,reagent,"total luciferase, z-score","total luciferase, % of control","luciferase per cell, z-score","viable cells, % of control",Call
UPK3A (uroplakin 3A),1,-0.22,77.5,0.791,70.3,inactive
UPK3A (uroplakin 3A),2,0.42,90.2,2.01,59.3,inactive
UPK3A (uroplakin 3A),3,0.16,85.1,0.189,90.4,inactive

Further entries follow.
target gene,reagent,"total luciferase, z-score","total luciferase, % of control","luciferase per cell, z-score","viable cells, % of control",Call
UTP14C (UTP14C small subunit processome component),1,1.65,115,0.591,110,inactive
UTP14C (UTP14C small subunit processome component),2,-0.426,73.4,-0.576,95.5,inactive
UTP14C (UTP14C small subunit processome component),3,-0.0282,81.3,-0.17,95,inactive
"NPDC1 (neural proliferation, differentiation and control 1)",1,-0.372,74.5,0.342,76.1,inactive
"NPDC1 (neural proliferation, differentiation and control 1)",2,-1.57,50.7,-1.51,84.3,inactive
"NPDC1 (neural proliferation, differentiation and control 1)",3,-0.777,66.4,0.00725,74.1,inactive
ENSA (endosulfine alpha),1,-0.75,67,-0.239,79.7,inactive
ENSA (endosulfine alpha),2,0.171,85.3,0.715,79,inactive
ENSA (endosulfine alpha),3,0.482,91.5,0.0506,101,inactive
